Library screening results

Chains of the proteins cited; added tags and fusions are not shown.
UniProt E9BF75, entry or part of it: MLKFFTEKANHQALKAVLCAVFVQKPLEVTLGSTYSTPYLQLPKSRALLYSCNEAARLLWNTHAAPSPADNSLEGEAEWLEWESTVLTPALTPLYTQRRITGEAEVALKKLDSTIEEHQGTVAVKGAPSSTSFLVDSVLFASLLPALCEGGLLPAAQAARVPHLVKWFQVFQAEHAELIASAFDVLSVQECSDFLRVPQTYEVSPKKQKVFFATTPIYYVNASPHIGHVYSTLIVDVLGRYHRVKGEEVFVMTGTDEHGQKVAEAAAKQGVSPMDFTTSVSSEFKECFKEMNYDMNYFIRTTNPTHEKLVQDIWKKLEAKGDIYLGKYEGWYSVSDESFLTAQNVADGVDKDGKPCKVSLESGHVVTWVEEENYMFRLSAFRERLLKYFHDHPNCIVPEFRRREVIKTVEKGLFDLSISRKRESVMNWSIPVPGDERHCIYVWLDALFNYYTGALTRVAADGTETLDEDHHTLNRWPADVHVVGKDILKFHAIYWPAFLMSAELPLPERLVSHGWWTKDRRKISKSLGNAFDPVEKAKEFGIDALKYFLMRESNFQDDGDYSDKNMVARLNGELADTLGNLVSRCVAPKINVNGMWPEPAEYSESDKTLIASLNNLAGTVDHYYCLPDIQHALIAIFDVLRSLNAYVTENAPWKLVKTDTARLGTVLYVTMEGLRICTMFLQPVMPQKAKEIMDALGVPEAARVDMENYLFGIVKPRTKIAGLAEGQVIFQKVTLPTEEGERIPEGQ

Mtb heat-shock: 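Assay on Mycobacterium tuberculosis, filed only as a heat shock assay from Cornell; the read-out is not stated. The concentration is filed as 10 mM, unlikely as a test dose, so the dose is not known. Higher reads as stronger inhibition (inferred: compounds with an IC50 in retests scored well above the rest). Of about 69,000 compounds tested this way, about 930 (1.4%) reached 50% or more in at least one test.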
LdMetRS: 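Methionyl-tRNA synthetase (putative), Leishmania donovani (UniProt E9BF75). Primary screen of methionyl-tRNA synthetase; the read-out is not stated. The test concentration is not given. The values are filed as inhibition. About 68,000 compounds were tested under these conditions; 0.035% (about 24) showed 50% or more at least once.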
Mtb growth Cornell: 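Whole-cell assay for inhibitors of Mycobacterium tuberculosis growth, labelled Cornell in the record; the read-out is not stated. The concentration is filed as 10 mM, unlikely as a test dose, so the dose is not known. The record gives no direction; compounds strong in two other growth screens of this library score well above the rest, so higher reads as stronger inhibition. Of about 53,000 compounds tested this way, about 900 (1.7%) reached 50% or more in at least one test.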

All values are in %. The record does not define 0% and 100%; most values in the screen are far below 50% and negative numbers occur (in some assays of this library far below -100). The compounds are a random part of those screened.

{"smiles": "COCC(=O)NC1CC2(CCN(CCF)CC2)Oc2ccccc21", "stereo": "centres unmarked", "LdMetRS": -9.091}
{"smiles": "CC(=O)N(Cc1ncc(C)o1)C1CCN(Cc2ccon2)C1", "stereo": "centres unmarked", "Mtb heat-shock": -11.02, "LdMetRS": 14.36}
{"smiles": "CN(C)C(=O)CN1C(=O)CCC12CCN(Cc1ccsc1)CC2", "LdMetRS": 11.22}
{"smiles": "CC(=O)N(C)Cc1ccccc1NC(=O)N(C)CCc1cccs1", "Mtb heat-shock": -0.8613, "LdMetRS": -1.681, "Mtb growth Cornell": 2.979}
{"smiles": "O=C(O)C(F)(F)F.O=C(O)C(F)(F)F.[H][C@@]12CN(CCOC)CCO[C@]1([H])CN(Cc1sccc1C)C2", "Mtb heat-shock": -17.73, "Mtb growth Cornell": 7.765}
{"smiles": "Cc1cccc(CN2CCCC(O)(CNCc3cccc(F)c3)C2=O)c1", "stereo": "centres unmarked", "Mtb heat-shock": -18.4, "LdMetRS": 14.93}
{"smiles": "CCc1nc(C)sc1CNC1CCN(Cc2ccccc2)C1", "stereo": "centres unmarked", "Mtb heat-shock": -15.09, "LdMetRS": 8.798, "Mtb growth Cornell": 19.25}
{"smiles": "CCn1cc(S(=O)(=O)N2CCC3(CCCN(CC4CCC4)C3=O)C2)cn1", "stereo": "centres unmarked", "Mtb heat-shock": -12.04, "LdMetRS": 4.032, "Mtb growth Cornell": -2.922}
{"smiles": "Cn1ccc(C(=O)NC2CCC23CCN(CC2CCOCC2)CC3)c1", "stereo": "centres unmarked", "LdMetRS": 19.02}
{"smiles": "CC(C)CCCC(C)NC(=O)c1ccc(OCC(N)=O)cc1", "stereo": "centres unmarked", "Mtb heat-shock": -7.939, "LdMetRS": 10.87, "Mtb growth Cornell": -1.675}
{"smiles": "O=C(NCCN1CCCCC1CO)c1cc(-c2ccccc2)on1", "stereo": "centres unmarked", "Mtb heat-shock": 5.382, "LdMetRS": 11.75, "Mtb growth Cornell": 45.75}
{"smiles": "CCCc1cncnc1N1CCC(NCCc2nc(O)cc(O)n2)CC1", "Mtb heat-shock": 4.703, "LdMetRS": 10.31, "Mtb growth Cornell": -3.025}
{"smiles": "CCN(C)c1ncnc2c1CCN(S(=O)(=O)c1ccccc1)CC2.O=C(O)C(F)(F)F", "Mtb heat-shock": 39.28, "Mtb growth Cornell": 2.965}
{"smiles": "COCCN1CCC2(CCCN(C(=O)c3cncn3C)C2)CC1.O=C(O)C(F)(F)F", "Mtb heat-shock": 1.496, "Mtb growth Cornell": 9.349}
{"smiles": "CC(C)NC(=O)[C@@H]1C[C@@H](N)CN1C(=O)CCSCc1ccccc1", "Mtb heat-shock": -6.217, "LdMetRS": 5.882, "Mtb growth Cornell": -0.06819}
{"smiles": "O=C(CCc1ccc(OC(F)(F)F)cc1)N1CCCS1(=O)=O", "Mtb heat-shock": -9.582, "LdMetRS": 9.89, "Mtb growth Cornell": -4.515}
{"smiles": "O=C(CNc1cccc(S(=O)(=O)C(F)F)c1)NCc1ccco1", "Mtb heat-shock": 18.67, "LdMetRS": 6.267, "Mtb growth Cornell": -18.64}
{"smiles": "CC(C)=Cc1c(-c2ccccc2)ncn1CCS(C)(=O)=O", "Mtb heat-shock": -19.18, "LdMetRS": 13.66, "Mtb growth Cornell": -64.1}
{"smiles": "CCc1nc(CN2CC(C(=O)OC)O[C@H](C)C2)cs1", "stereo": "some centres unmarked", "Mtb heat-shock": 0.02585, "LdMetRS": 15.32}
{"smiles": "Cc1ccc(C(=O)N2C[C@@H]3OCCN(CCN4CCCC4)[C@@H]3C2)cn1", "LdMetRS": 19.19}
{"smiles": "Cc1cccc(N2N=C(C(=O)NC(C)Cc3ccco3)CCC2=O)c1", "stereo": "centres unmarked", "Mtb heat-shock": -6.279, "LdMetRS": 10, "Mtb growth Cornell": 12.2}
{"smiles": "COc1ccc(NC(=O)CN2CCCCC2C2OCCO2)cc1", "stereo": "centres unmarked", "Mtb heat-shock": -6.357, "LdMetRS": 9.89, "Mtb growth Cornell": -23.21}
{"smiles": "NC(=O)C1CCCN(Cc2c(-c3ccco3)[nH]c3ncccc23)C1", "stereo": "centres unmarked", "Mtb heat-shock": 12.62, "LdMetRS": 19.52, "Mtb growth Cornell": 7.075}
{"smiles": "CN1CCN(C(=O)c2cccc(OCc3cscn3)c2)CC1", "Mtb heat-shock": -8.122, "LdMetRS": 6.135, "Mtb growth Cornell": -11.47}
{"smiles": "O=C(Nc1ccccc1OC1CCOC1)c1[nH]nc2c1CCCC2", "stereo": "centres unmarked", "Mtb heat-shock": 43.96, "LdMetRS": 12.1, "Mtb growth Cornell": 80.23}
{"smiles": "[H][C@@]12CS(=O)(=O)C[C@]1([H])N(S(=O)(=O)c1cn(C)cn1)CCN2CC=C(C)C", "Mtb heat-shock": -23.28, "Mtb growth Cornell": -37.52}
{"smiles": "CC(=O)Nc1cccc(OCCNC(=O)N(C)Cc2ccncc2)c1", "Mtb heat-shock": -18.27, "LdMetRS": 9.549, "Mtb growth Cornell": -25.22}
{"smiles": "COCc1ccccc1C(=O)N1CCCC(c2cc(C)[nH]n2)C1", "stereo": "centres unmarked", "Mtb heat-shock": -20.46, "LdMetRS": 7.669}
{"smiles": "CO[C@H]1CCN(C(=O)c2ccc3[nH]nnc3c2)C[C@@]12CCCO2", "Mtb heat-shock": -1.606, "LdMetRS": 15.56, "Mtb growth Cornell": 18.4}
{"smiles": "CCc1n[nH]c(C2CN(C(=O)COCC(F)(F)F)CCO2)n1", "stereo": "centres unmarked", "Mtb heat-shock": 8.7, "LdMetRS": 8.01, "Mtb growth Cornell": 4.613}

For reference, 3 entries once more:

{"smiles": "O=C(NCCN1CCCCC1CO)c1cc(-c2ccccc2)on1", "stereo": "centres unmarked", "Mtb heat-shock": 5.382, "LdMetRS": 11.75, "Mtb growth Cornell": 45.75}
{"smiles": "CC(C)CCCC(C)NC(=O)c1ccc(OCC(N)=O)cc1", "stereo": "centres unmarked", "Mtb heat-shock": -7.939, "LdMetRS": 10.87, "Mtb growth Cornell": -1.675}
{"smiles": "CCc1n[nH]c(C2CN(C(=O)COCC(F)(F)F)CCO2)n1", "stereo": "centres unmarked", "Mtb heat-shock": 8.7, "LdMetRS": 8.01, "Mtb growth Cornell": 4.613}

Data taken from ChEMBL document CHEMBL3988442, “University of Dundee, Small-Polar-MMV Screening Library” (2021).